Measurements: US12201592B2, “Combinations of IRS/STAT3 dual modulators and anti-cancer agents for treating cancer” (TYRNOVO LTD., priority 2015, dated 2025)
For at least one compound, name, drawing or mass did not settle the structure.

Legend:
[1] = test system: IRS and phosphorylated STATS; assay: IRS and phosphorylated STAT levels in cells in culture treated with MAPK pathway inhibitors; type: cell-based
[2] = test system: Adenoid Cyctic Carcinoma tumor biopsy; assay: PDX efficacy study with Trametinib (Example 9); type: in vivo, NodScid mice
[3] = test system: pStat3 in A375, 451-Lu, Mel1617 cells; assay: Immunoblot of basal and PLX4032-induced pStat3 in PLX4032-sensitive melanoma cells; type: cell-based, human; details: 1 μM for 18-24 hr; three PLX4032-sensitive melanoma cell lines
Description: FIGS. 7A-7E. […] FIG. 7A. […] FIG. 7B. […] Cells from patients were grown in complete medium and immunoblotted as described above. […] Compounds A/D block the basal and the PLX4032-induced pStat3. Treatment of PLX4032-sensitive human melanoma A375 (C), 451-Lu (D) or Mel1617 (E) cells with 1 μM PLX4032 for 18-24 hr induces a dramatic increase in pStat3. Compounds A (FIG. 7C, D) or D (FIG. 7E) block both the basal and the PLX4032-induced pStat3. OSI-906, an ATP-competitive inhibitor of IGF1R, has no effect on pStat3.
• Cells were treated as indicated in FIGS. 6-9 and the corresponding figure legends, following overnight serum-starvation (unless indicated differently). When cells were treated with both PLX4032 and compounds A or D, PLX4032 was added 3-4 hr following the compounds. • Cells were lysed with boiling sample buffer (10% glycerol, 50 mmol/L Tris-HCl, pH 6.8, 3% SDS, and 5% 2-mercaptoethanol). Western blot analysis was conducted in 8% SDS-PAGE, using antibodies described below. • Aliquots of cell extracts containing equal amounts of protein were resolved by 8% SDS/PAGE and electroblotted onto nitrocellulose filters. […]

CC(=O)Nc1cccc(-n2c(=O)n(C3CC3)c(=O)c3c(Nc4ccc(I)cc4F)n(C)c(=O)c(C)c32)c1 [Trametinib]
levels of IRS and phosphorylated STAT in treated cells [1]: the levels of both IRS and phosphorylated STATS increase | resistance / regrowth while on treatment, first phase ([2]; day0-day13): while on treatment after day10 tumors progressed | tumor response, first phase ([2]; day0-day13, start ~65 mm^3, Trametinib 1 mg/kg PO, Compound D 70 mg/kg IV): induced tumor regression | resistance / regrowth while on treatment, second phase ([2]; days 24-31): after 4 days of treatment tumors acquired resistance to the treatment and aggressively progressed while on treatment | tumor response, second phase ([2]; days 24-31): dramatic tumor regression in all mice

CCCS(=O)(=O)Nc1ccc(F)c(C(=O)c2c[nH]c3ncc(-c4ccc(Cl)cc4)cc23)c1F [PLX4032, Vemurafenib, reference compound]
levels of IRS and phosphorylated STAT in treated cells [1]: the levels of both IRS and phosphorylated STATS increase | effect on Stat3 Y705-phosphorylation (pStat3) [3]: marked induction in Stat3 Y705-phosphorylation
